13 molecules from paper doi:10.1101/436147 can be followed below.

By UniProt entry, the sequences of proteins in these tests, tags left out.
UniProt Q17963: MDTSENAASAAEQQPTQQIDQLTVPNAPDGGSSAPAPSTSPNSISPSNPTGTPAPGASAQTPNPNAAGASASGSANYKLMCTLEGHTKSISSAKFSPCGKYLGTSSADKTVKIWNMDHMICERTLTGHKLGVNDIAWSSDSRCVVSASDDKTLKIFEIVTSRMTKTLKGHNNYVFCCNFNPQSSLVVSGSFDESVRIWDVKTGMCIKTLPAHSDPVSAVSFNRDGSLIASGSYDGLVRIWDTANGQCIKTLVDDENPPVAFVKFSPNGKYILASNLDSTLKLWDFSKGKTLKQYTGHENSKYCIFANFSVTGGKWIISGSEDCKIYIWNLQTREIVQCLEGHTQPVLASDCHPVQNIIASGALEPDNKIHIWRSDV
UniProt O17695: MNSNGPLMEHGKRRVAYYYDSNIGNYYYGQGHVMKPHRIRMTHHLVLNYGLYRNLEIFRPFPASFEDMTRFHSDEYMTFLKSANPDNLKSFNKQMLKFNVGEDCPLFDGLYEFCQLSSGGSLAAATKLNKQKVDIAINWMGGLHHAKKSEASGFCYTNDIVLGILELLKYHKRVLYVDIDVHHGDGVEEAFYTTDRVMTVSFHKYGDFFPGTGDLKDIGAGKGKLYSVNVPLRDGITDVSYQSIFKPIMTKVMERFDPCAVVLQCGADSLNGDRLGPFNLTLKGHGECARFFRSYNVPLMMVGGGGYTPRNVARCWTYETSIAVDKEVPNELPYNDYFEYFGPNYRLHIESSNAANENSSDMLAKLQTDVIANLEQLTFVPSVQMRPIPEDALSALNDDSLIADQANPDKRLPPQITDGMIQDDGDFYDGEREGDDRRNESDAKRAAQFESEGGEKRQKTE
UniProt A5JYW9: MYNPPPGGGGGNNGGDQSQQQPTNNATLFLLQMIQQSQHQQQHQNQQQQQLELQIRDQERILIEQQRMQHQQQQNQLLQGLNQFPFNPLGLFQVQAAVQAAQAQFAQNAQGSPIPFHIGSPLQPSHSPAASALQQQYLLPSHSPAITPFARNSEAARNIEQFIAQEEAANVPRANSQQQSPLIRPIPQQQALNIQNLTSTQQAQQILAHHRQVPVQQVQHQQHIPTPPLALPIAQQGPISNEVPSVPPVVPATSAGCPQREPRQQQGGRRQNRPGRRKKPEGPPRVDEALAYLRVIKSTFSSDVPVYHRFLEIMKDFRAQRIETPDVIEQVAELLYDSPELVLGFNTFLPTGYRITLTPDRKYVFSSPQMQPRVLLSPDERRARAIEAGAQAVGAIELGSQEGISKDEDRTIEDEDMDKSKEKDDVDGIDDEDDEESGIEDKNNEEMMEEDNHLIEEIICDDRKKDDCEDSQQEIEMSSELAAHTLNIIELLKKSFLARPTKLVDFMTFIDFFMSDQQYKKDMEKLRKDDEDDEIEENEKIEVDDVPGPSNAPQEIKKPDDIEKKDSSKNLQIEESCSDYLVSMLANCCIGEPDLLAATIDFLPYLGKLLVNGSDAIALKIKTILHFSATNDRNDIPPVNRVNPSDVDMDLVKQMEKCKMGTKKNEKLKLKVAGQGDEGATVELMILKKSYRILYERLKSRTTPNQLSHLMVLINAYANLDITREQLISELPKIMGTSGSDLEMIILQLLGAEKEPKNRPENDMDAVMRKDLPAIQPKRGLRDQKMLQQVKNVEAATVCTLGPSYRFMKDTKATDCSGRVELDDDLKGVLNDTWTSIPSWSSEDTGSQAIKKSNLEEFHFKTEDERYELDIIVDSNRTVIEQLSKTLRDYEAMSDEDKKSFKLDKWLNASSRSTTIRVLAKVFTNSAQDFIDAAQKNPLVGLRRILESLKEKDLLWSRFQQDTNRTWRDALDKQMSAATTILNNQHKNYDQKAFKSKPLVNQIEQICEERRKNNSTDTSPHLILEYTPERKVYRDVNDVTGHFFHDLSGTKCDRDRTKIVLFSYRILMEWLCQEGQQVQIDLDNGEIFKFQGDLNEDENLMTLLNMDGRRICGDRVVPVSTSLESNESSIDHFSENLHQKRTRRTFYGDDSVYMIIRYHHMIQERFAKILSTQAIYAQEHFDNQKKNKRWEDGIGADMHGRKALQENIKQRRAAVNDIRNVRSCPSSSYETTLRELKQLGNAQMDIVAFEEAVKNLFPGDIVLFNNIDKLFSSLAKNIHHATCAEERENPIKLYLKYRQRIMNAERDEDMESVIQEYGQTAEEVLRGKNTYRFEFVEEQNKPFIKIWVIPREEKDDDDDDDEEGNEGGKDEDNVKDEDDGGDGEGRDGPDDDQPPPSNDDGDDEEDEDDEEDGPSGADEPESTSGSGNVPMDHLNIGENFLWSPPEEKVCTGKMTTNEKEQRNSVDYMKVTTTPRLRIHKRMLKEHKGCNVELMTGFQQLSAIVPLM
UniProt Q18221: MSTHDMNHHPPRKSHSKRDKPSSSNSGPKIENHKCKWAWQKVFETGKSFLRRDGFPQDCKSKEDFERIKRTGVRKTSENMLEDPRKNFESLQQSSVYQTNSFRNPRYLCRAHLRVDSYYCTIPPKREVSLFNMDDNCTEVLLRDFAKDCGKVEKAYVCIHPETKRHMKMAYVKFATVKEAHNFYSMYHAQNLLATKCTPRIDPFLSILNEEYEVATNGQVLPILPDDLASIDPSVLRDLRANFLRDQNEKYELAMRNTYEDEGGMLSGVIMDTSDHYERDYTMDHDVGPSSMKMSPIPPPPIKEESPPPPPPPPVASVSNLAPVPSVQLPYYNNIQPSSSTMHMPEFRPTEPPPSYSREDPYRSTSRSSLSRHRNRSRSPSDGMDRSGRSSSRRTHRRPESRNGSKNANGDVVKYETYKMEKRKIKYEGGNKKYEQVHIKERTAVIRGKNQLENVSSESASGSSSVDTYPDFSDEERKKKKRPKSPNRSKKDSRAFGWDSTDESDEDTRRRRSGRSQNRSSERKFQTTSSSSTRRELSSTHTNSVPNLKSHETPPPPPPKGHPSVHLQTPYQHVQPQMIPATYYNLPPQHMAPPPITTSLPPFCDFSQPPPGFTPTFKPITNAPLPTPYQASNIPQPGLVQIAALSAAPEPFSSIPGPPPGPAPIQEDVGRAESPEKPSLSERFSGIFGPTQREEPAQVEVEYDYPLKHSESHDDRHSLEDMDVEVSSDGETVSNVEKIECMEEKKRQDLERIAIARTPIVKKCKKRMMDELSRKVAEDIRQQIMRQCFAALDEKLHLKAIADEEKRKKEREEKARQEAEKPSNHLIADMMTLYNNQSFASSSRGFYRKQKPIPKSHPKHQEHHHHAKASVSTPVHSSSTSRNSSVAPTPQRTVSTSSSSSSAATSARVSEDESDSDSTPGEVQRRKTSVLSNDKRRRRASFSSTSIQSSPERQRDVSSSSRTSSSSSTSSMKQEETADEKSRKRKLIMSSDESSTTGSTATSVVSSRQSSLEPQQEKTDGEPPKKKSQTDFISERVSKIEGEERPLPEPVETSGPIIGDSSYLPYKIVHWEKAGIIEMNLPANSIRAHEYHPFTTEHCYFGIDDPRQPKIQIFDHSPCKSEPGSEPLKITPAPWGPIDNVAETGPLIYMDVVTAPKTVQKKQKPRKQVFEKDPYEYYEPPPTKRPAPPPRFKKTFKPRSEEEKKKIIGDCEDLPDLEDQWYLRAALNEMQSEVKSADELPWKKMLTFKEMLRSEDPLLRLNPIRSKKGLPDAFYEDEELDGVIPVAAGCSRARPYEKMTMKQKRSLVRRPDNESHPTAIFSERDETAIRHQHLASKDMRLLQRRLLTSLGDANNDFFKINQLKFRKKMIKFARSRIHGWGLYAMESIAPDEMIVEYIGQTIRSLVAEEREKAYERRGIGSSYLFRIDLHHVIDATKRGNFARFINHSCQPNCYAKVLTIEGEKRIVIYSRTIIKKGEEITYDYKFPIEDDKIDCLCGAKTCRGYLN

One experiment has as its target T1, CFP-1::GFP (C. elegans) (UniProt Q9XUE7).
T1 sequence: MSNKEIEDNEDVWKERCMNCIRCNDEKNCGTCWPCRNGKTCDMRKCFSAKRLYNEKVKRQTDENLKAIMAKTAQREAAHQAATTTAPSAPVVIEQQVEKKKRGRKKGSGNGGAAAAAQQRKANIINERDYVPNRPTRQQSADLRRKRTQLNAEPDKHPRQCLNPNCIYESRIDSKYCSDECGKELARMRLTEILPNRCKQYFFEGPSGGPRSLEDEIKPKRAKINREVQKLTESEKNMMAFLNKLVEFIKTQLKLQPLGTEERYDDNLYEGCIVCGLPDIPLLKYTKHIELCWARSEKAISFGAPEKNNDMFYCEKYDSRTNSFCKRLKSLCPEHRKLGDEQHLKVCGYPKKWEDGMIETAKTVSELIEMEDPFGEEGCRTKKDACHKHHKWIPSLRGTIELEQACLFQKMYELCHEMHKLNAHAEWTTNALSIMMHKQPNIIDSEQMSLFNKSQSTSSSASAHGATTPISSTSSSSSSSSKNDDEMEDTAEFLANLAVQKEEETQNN
Nature of the experiment: affinity purification with mass spectrometry.

The target in the next experiment is HA::WDR-5.1 (C. elegans) (UniProt Q17963). Nature of the experiment: affinity purification with mass spectrometry.

Results are given in words; binding and its absence hold for the method and conditions named. Binding seen in cells or lysates may run through a third protein. A yes stands for co-enrichment or nearness to the bait. Other partners may have been found. For part of these data: No binding means not detected with the bait. For part of these data: Where a sequence is shown, tags or fusion partners need not be part of it.

Regarding “UTX-1 (C. elegans (endogenous in embryos))”, in the experiment with CFP-1::GFP (C. elegans), the binding entry was “no binding”.
Still for that read-out and setting: the result for “PIS-1 (C. elegans (endogenous in embryos))” reads “no binding”; that for “ATHP-1 (C. elegans (endogenous in embryos))”, “binds”.
For HDA-1 (from UniProt O17695 1-461), the binding result in the experiment with CFP-1::GFP (C. elegans) and with HA::WDR-5.1 (C. elegans) was “binds” in each case.
“SET-16 (C. elegans (endogenous in embryos))”: in the experiment with CFP-1::GFP (C. elegans), the binding result was “no binding”.
As to SIN-3 (from UniProt A5JYW9 1-1507), the binding result in the experiment with CFP-1::GFP (C. elegans) and with HA::WDR-5.1 (C. elegans) was “binds” throughout.
On to SET-2 (from UniProt Q18221 1-1507), for which the binding entry in the experiment with CFP-1::GFP (C. elegans) and in the experiment with HA::WDR-5.1 (C. elegans) was “binds” in each case.
In the case of “SWD-2.1 (C. elegans (endogenous in embryos))”, the binding entry with CFP-1::GFP (C. elegans) is recorded as “binds”.

B1: SUMV-2 (protein, UniProt Q22992 1-1145)
chain: MKPGRKSLPKKNRASNITEKMPTTSTEAQSSSSKNQDRCRSFSQELGVDDEPEEQQAPVATPKQTKKAQKTAKTTEEVKSPRKSARKSELKKPEPEEKAKEPRKSASKRKSSSLMNKDEPSTSTEAPSADVPGTSEASDEASEIQEAPENPNSALAIKKRLMGGGESSKSAPTKNPPKARKSNVKKPEKEAEALAPPEPPAEPQEAAETPAPEPLVPEKKPKIEDAPTTSSPKKSTPTSAPPTRASARVSKPNRLYADGSFNTEILGRTRITEQNPVKEAQAKESTPELADLPLPAGRRKSTAAPRAPPAPKPIPVINGVLRGYIPSVKVPLAEYEVDGEIINLNEGVNETMDTILAKVCEDGVEKHEDIDPKVVKAKKLAKIDYTKRLKLQVKKLDIQMRIKIPSTPEELGKRKRQAPKTDDFYWSAQSRTKLKGSSKEREETPAFDEESPIGGDEKRQQKARESISHLFDAEMDASIKEAKKYSVSFDKYIKPKITGALKHAKIKLMSRKRQSAEPDDFYYHELLVDQVSPSNSNVENVDVDVDIEETDDKVDPTEFEISEEGVIGIRDEAVDMAEQIALVIPRPTKHDGSPMSMDEIQMRAMEHVESRTKCLDGSLEIVLNQLGHEMAPPTRGVEEQGCQWHTVTSANAQALKNLYTIANNCTEDAITWTHQFMIENLEVHMLASYLSILKYAKRLNSSRFGYVISSTDQLDPEWTQVTSLLKSFVYKRHTEPGTEVLNNTIPYHRMTDTVFLLVPPTLTFGDHQRAPPRHHARIFRWLQSIGHQDSEFISFDEDIDATCSVAEYLSDVIVERICDKVRQKNKYRPNCNVVLVGYGASTYLIHRAANLVEGISAIISIGFPVMTSLGRRGTADDEILLTYCPTLFIVGAEGRRFNNEAITELRTSMISPSGLVVVGHSNDMILVPTSMLLRLGISQTVVFRMVLEKILDFLNLEPVRQQEFADLVPIELNNVFDLDSALLKSDKALSGLAFASSTHSASSSAAPSPVGASGRRATVTGAGSEDIAKRRKESIILSQQIAAPSISGPPPPAPSPRTEDRFLAFQNLVASTITTGDDMPRRASMGASPRVIERGDFRDHRPPPPPPLPILQNPVATPMSQQPPLPSPAPPPPRGPVDPASISLI
On to B1, for which, in the experiment with HA::WDR-5.1 (C. elegans), the binding result is recorded as “binds”.

B2: RBBP-5 (protein, UniProt Q09309 1-454)
chain: MVEILDRTYGAQFPEELECHLDLQNASANCCKFNRWGSIVAVGCTDGRVLIYDFMTRNIARTFSAHCLPVSCLSWSRDGRKLLTSSADNSIAMFDVLAGTLLHRIRFNSMVTFAMFHPRNDNKAIVLQVNKQPTVEQFSPRIQTVLANDTPGSSDESASCVSYDRKGKYIIAGTGKGKLLIYNAETLKCVAWCKQNTVQQIRQIIVPMKSRFIITNTQDRVIRTYELEDLLHQRGQMVEAKYKVLDMVNKAAWKNVCTDSDGLYVCGASTKAHSLYIWESNTGSLIKILHGNKGEALLDVQWHPTRPIILSIAQGTVSMWTQAHVENWSAFAPEFQELEENEKYIEKENEFDMEDEDADEDMTSKSQDAEDDIIDVVNVRPEDYLASSDEEDCNIMKPARNLESGPLWYIPVPLDIENADNDQRLPDDIRNLDNLLNPAWVASAKGYELSPKSK
Turning to B2, the binding entry in the experiment with CFP-1::GFP (C. elegans) and with HA::WDR-5.1 (C. elegans) was “binds” each time.

B3: ASH-2 (protein, UniProt G5EFZ3 1-570)
chain: MRSSKGGRGRQAAPKTAPTTVCYCDGKRELGSVEVVCSTCLKWFHGRCLKEFHELNSNGVPFMICYTFTCKQCRPTAEDWKAKKADLVQMCVTVLATLSAERLKADGKLSAEHVPEDFTYLSLKDEIVPYMNENWYMLTAIKQKKEWHQNLAPTLLKEKNIFVQHNDDDDLFALAEKNLSLLGPLHEAVKLIGKRPIERENREPRHIELPPIEGPKTRGASKRRHAEAPVTGKKQKLAADYSSTAAPNGVQIDIPFSKDNYRYYLTEVDPNVPEDPAWNQNQSSAYVIPSFHYRELLNPTVNVSSNDRAFQLSINGNSITGFEGYSMARASHGVSKGTWYFEVNFDDQPDDSHIRIGWSQSYASLQACVGYNKFSYGWRSKHGTKFHEAKGKKYHFGGFKQGDVLGCLIHLPVDKKLQIPANLPSEKYLPVSHKGFNLISFKANYFFEVQEESADIAKTLVEMPGSYIEFFHNGKSCGKAYENIYAGAYYPSISIFKSATATMNLGPKFRNLPRGATGIHARADEQQHEQTLSDMLYLVSKEVNLDHPPRVKREDDDDVKDIKKEIKQEI
Turning to B3, the binding entry with CFP-1::GFP (C. elegans) and in the experiment with HA::WDR-5.1 (C. elegans) was “binds” in each case.

B4: SUMV-1 (protein, UniProt P46582 1-1024)
chain: MKQTTRPPAQYIVAPGTRFRLVANEYDKNKYGQCNYASYRTLVRCKQIRSKEELAKHGGRCEEHVEFSKTLENNHKKEVMRCHAENDSKMQRRRFDPWIASNEYISDDDDYLQAAQTVPQRLPDVANDDILDNNSLRYAEYYTDKDILNIKMDLVQKDIDDLIEFKELVTSQAQKEHELLGNDEEEDYPTDMAQRRIFKASTKYSRNDYLTLTTIDPVFHQCCVGPDMDDSLVIVHTMHSILDKIDNFEPIDSEKQCNKPALHLSKFCFDHIILDRSQKMFDVCNACGLTAIGGVDPKCSFHIKSSAIAETTSCPCNRCVQPGEHASPKDEKNSITCYLNSSDDDEPTLGNLSRIESMVSPMQQFSNQSNTLTAPLPRRYQGPPAQVLRPPQMGPPPGINQVPYQPKANRTPPMTSQQLHEQQKLKMQEEEMMSQTCASDFRVRPIDASQFGGGKKKQRLPPRRSPSFGTSPNSYQFHQQSQKKMPSIISTAYNSSPGKMNFQGWKNQSTSSATRPLPQPRFPVHAARSQQPKMIPLEQTQDSIEDDIGPSPMFQGPEPSRRGVPYYKNAYRRTELPSRHAQHSPLTPSTSTSSSQLLAPPKSPQPGTSSQTFRSQASRLPIAPHRAIAAGLNPADVGTRPAYRSQMAGQRPGMTPSAQQGSPQLISPPRQGSMMPVAMNQSPQAVRRQTPVPPYRLMGPQRVTTSYTVVRSGSSSSVAGPSRSSVASGSQHTALDTVQHDPRLANINVRTFLSIGNRDLSTLTQDEIDLLMAGNSPEKGGRKAGAPGAKESSKAAGGAQKGTSAASTSVPEPTKSSESSVDPQSDVSFSNPSPAPEVIEKVAPAAMTITSNKRKIDETLASESTSSEATLIHDTTSSSSAETVSGEPPAKKSSDVSAPVPSPEKEKEKIDRPKTPKSSTKRTTPTPSGRTPRAAAIAANQAISHSKPNVPSASTSSSAASTDQENPLDLLAELSVAAAAEEQQQAIGSTSKNGGSTKKTQRKSPSRSSIGKKRENSEEYEEEL
Regarding B4, the binding entry with HA::WDR-5.1 (C. elegans) is recorded as “binds”.

B5: OGT-1 (protein, UniProt O18158 1-1151)
chain: MEKPNYFQSYNKVIGATGEQLAPGAVPPHPVLAPSIAPGGVAGVSAANMANIMQTPGFANLVQQAIRTQLENQAAQQLAVNQQFQLNGATAVQQQLLLTPQQSLAQPIALAPQPTVVLNGVSETLKKVTELAHRQFQSGNYVEAEKYCNLVFQSDPNNLPTLLLLSAINFQTKNLEKSMQYSMLAIKVNNQCAEAYSNLGNYYKEKGQLQDALENYKLAVKLKPEFIDAYINLAAALVSGGDLEQAVTAYFNALQINPDLYCVRSDLGNLLKAMGRLEEAKVCYLKAIETQPQFAVAWSNLGCVFNSQGEIWLAIHHFEKAVTLDPNFLDAYINLGNVLKEARIFDRAVSAYLRALNLSGNHAVVHGNLACVYYEQGLIDLAIDTYKKAIDLQPHFPDAYCNLANALKEKGSVVEAEQMYMKALELCPTHADSQNNLANIKREQGKIEDATRLYLKALEIYPEFAAAHSNLASILQQQGKLNDAILHYKEAIRIAPTFADAYSNMGNTLKEMGDSSAAIACYNRAIQINPAFADAHSNLASIHKDAGNMAEAIQSYSTALKLKPDFPDAYCNLAHCHQIICDWNDYDKRVRKLVQIVEDQLCKKRLPSVHPHHSMLYPLSHAARIAIAAKHASLCFDKVHVQMLGKTPLIHADRFSVQNGQRLRIGYVSSDFGNHPTSHLMQSIPGMHDRSRVEVFCYALSVNDGTNFRSKLMNESEHFVDLSQIPCNGKAAEKIAQDGIHILINMNGYTKGARNEIFALRPAPIQVMWLGYPSTSGATFMDYIITDAVTSPLRLANAFTEKLAYMPHTFFIGDHAQMLRHLTDKVVVKDKETTERDSCLIMNTANMDPILAKSEIKEQVLDTEVVSGPNKELVRAEMVLPVLEVPTEPIKQMIMTGQMTMNVMEDMNVQNGLGQSQMHHKAATGEEIPNSVLLTSRAQYQLPDDAIVFCNFNQLYKIDPSTLDMWIKILENVPKSILWLLRFPYQGEEHIRKYCVERGLDPSRIVFSNVAAKEEHVRRGQLADVCLDTPLCNGHTTGMDILWTGTPMVTMPLESLASRVATSQLYALGVPELVAKTRQEYVSIAVRLGTDADHLANMRAKVWMARTSSTLFDVKQYCHDMEDLLGQMWKRYESGMPIDHITNNTETPHGL
Turning to B5, the binding result with HA::WDR-5.1 (C. elegans) is “binds”.
